The target in the experiment is T1, Flag-tagged MAFbx (Atrogin-1/Muscle Atrophy F-box) (UniProt Q969P5).
T1 sequence: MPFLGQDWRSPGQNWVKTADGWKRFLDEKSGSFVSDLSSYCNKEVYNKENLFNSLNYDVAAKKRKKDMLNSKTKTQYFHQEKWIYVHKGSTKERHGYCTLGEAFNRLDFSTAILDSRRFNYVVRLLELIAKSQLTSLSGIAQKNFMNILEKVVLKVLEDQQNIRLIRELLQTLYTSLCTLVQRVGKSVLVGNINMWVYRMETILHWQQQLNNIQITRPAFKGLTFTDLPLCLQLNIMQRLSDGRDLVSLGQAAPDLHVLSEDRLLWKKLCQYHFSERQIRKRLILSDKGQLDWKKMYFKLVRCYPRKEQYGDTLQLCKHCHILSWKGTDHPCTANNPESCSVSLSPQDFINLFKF
As to the kind of experiment: co-IP; 10T1/2 cells co-transfected with an HA-tagged MRF and Flag-MAFbx, harvested 24 hr after transfection; 400 µg of total proteins immunoprecipitated with anti-Flag antibodies, Western blotting with anti-HA.

By UniProt entry, the sequences of proteins in these tests, tags left out.
UniProt P10085: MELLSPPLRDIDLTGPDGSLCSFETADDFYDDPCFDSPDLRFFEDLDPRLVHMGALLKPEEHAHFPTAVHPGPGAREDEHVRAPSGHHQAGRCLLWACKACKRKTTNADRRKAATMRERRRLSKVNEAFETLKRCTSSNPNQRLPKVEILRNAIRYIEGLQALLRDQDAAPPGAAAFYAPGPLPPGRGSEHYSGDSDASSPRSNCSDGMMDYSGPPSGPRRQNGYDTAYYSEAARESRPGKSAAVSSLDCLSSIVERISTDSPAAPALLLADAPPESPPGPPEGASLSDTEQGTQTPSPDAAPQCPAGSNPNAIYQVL

These are yes or no findings as the source states them, for the method shown. In cells and extracts the contact can be indirect. Some entries that bind do so weakly or less than the wild type. Tags and fused reporters may be left off the sequences shown.

Consider “HA-tagged MyoD (from UniProt P10085 1-318)”, for which the binding entry is on record as “binds”.

B1: HA-tagged MRF4 (protein, UniProt P15375 1-242)
chain: MMMDLFETGSYFFYLDGENVTLQPLEVAEGSPLYPGSDGTLSPCQDQMPQEAGSDSSGEEHVLAPPGLQPPHCPGQCLIWACKTCKRKSAPTDRRKAATLRERRRLKKINEAFEALKRRTVANPNQRLPKVEILRSAISYIERLQDLLHRLDQQEKMQELGVDPYSYKPKQEILEGADFLRTCSPQWPSVSDHSRGLVITAKEGGANVDASASSSLQRLSSIVDSISSEERKLPSVEEVVEK
With B1, the binding entry is “no binding”.

B2: HA-tagged myogenin (protein, UniProt P12979 1-224)
chain: MELYETSPYFYQEPHFYDGENYLPVHLQGFEPPGYERTELSLSPEARGPLEEKGLGTPEHCPGQCLPWACKVCKRKSVSVDRRRAATLREKRRLKKVNEAFEALKRSTLLNPNQRLPKVEILRSAIQYIERLQALLSSLNQEERDLRYRGGGGPQPMVPSECNSHSASCSPEWGNALEFGPNPGDHLLAADPTDAHNLHSLTSIVDSITVEDMSVAFPDETMPN
On to B2, for which the binding result is “no binding”.

For the origin of these results see PMC2656614.
